The other results are listed elsewhere or left out.
How the values were obtained:
Assay in all cases: log2 fold change, soluble protein after heating vs DMSO (PISA); higher = thermal stabilisation; K562 lysate, 10 uM; active = over 0.2 and 3.5 SD of the protein, either way, in both replicates (recomputed)
vemurafenib = compound: CCCS(=O)(=O)Nc1ccc(F)c(C(=O)c2c[nH]c3ncc(-c4ccc(Cl)cc4)cc23)c1F [vemurafenib]
In short: (§1)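 Values give the log-two fold change in thermal stability against solvent controls, from duplicates. Crude K562 extract at 1 mg/mL protein, made by dounce homogenisation in PBS pH 7.4 with 1 mM MgCl2, was treated with 10 μM compound for 30 min. After 3 min heating across 48°C-58°C, aliquots were pooled, adjusted to 0.5% NP-40 at 4°C and centrifuged at 21,000xg for 90 min. The supernatant was measured by TMTpro 16plex LC-MS/MS with channel sums equalised.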

The chains behind the UniProt entries cited, without tags or fusion partners. Where a name states a change or a piece, a line headed by the entry shows the natural chain unless it says otherwise.
UniProt Q9BQT8: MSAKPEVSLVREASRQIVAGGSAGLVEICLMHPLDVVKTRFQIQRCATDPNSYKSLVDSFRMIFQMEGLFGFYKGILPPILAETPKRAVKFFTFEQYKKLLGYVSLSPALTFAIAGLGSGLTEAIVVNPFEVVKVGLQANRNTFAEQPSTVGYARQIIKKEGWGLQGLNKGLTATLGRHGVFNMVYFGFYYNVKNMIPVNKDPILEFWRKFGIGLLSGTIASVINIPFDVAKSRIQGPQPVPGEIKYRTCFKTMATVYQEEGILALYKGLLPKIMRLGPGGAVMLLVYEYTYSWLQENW
UniProt P08195: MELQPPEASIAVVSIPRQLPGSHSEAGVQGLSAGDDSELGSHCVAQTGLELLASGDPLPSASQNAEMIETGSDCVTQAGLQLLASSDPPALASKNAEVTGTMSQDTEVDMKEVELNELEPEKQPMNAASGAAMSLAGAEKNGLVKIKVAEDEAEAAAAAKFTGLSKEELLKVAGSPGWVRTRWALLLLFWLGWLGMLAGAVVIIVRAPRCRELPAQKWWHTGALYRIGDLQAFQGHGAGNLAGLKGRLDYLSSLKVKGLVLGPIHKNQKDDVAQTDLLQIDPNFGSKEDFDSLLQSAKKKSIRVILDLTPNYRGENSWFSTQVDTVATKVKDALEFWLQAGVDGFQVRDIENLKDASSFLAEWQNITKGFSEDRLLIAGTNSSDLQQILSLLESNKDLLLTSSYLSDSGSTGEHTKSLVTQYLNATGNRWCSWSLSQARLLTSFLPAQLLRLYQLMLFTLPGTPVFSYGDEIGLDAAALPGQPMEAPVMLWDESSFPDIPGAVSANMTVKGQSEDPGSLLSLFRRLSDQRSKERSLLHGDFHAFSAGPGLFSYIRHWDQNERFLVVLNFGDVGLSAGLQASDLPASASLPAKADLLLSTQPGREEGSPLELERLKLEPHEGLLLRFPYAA
UniProt Q96CW6: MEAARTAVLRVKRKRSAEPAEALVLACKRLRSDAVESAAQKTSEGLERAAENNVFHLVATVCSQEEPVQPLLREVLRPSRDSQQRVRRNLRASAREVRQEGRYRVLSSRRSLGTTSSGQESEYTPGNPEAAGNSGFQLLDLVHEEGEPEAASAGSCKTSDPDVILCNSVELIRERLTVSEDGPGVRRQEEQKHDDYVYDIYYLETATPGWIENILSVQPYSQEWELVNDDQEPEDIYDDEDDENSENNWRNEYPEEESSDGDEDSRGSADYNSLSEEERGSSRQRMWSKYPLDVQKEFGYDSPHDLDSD
UniProt Q8WUX1, whole entry, looked up: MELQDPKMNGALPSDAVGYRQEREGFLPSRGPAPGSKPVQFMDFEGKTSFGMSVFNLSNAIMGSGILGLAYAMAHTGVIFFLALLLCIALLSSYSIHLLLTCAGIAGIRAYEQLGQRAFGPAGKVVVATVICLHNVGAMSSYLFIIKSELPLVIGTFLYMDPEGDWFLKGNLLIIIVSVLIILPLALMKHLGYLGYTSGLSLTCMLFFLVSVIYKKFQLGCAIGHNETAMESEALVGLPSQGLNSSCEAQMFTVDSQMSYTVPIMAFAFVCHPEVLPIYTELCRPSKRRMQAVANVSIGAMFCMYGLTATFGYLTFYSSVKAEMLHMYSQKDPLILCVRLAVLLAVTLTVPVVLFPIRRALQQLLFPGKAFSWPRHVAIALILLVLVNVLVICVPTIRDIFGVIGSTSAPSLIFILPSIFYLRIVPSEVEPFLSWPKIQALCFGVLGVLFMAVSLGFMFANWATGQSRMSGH
UniProt P78381: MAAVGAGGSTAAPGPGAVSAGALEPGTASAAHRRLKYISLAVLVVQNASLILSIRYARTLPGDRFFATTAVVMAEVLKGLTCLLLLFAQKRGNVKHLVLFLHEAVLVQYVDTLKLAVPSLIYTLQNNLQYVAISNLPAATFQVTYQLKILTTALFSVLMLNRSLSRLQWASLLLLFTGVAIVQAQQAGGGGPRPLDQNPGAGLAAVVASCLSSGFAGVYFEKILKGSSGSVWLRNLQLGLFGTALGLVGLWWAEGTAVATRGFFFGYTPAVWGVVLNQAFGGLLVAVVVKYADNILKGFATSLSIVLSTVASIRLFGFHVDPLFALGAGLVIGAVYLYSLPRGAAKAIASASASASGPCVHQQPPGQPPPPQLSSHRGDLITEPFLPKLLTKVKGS
UniProt Q14542: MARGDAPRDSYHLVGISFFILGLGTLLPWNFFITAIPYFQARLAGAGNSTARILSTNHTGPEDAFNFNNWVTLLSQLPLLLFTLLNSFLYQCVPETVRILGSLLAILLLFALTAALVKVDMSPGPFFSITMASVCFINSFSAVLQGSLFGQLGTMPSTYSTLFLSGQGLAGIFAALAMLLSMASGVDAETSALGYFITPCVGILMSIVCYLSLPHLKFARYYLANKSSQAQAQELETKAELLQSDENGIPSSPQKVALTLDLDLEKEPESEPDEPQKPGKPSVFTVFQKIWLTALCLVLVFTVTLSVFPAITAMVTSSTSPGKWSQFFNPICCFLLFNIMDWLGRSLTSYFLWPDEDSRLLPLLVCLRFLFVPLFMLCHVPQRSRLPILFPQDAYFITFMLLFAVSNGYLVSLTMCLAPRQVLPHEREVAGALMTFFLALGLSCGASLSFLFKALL
UniProt P31641: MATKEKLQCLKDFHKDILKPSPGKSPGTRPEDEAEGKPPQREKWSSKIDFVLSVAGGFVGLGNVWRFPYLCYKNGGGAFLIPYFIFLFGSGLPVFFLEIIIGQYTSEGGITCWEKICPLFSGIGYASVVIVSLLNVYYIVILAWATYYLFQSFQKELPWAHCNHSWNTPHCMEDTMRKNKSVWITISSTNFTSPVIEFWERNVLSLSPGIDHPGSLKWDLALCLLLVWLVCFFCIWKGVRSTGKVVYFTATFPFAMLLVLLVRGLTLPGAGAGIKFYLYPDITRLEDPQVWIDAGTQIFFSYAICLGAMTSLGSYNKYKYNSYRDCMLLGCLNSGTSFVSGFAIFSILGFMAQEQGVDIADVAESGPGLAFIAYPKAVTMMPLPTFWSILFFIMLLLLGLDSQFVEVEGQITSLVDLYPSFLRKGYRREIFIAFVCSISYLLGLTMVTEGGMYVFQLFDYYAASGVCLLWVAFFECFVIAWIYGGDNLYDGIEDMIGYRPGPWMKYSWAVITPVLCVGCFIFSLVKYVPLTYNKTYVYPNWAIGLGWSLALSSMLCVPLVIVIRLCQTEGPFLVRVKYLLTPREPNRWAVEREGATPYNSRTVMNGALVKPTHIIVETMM
UniProt Q9H936: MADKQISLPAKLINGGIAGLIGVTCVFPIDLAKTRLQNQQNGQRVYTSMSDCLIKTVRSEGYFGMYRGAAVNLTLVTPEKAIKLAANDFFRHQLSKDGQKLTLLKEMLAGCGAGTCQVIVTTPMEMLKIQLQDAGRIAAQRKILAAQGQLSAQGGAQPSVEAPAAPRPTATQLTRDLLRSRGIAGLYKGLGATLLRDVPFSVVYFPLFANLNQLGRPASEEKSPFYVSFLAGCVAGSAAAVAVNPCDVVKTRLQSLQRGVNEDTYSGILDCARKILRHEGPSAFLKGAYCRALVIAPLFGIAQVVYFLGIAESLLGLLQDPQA
UniProt Q8NBI5: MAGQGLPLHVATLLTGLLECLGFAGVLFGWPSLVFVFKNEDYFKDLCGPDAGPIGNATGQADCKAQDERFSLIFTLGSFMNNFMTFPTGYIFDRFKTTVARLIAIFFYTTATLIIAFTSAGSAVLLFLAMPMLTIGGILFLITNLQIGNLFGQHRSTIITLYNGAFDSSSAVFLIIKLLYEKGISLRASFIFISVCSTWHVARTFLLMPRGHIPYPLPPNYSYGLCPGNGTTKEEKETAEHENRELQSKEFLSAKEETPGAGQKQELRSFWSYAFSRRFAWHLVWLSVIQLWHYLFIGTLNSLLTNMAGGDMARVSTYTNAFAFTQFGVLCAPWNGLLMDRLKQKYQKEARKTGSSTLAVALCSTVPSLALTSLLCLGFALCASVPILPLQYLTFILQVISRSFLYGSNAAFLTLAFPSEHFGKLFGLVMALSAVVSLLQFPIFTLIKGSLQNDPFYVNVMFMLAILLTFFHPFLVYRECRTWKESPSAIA
UniProt Q9H2H9: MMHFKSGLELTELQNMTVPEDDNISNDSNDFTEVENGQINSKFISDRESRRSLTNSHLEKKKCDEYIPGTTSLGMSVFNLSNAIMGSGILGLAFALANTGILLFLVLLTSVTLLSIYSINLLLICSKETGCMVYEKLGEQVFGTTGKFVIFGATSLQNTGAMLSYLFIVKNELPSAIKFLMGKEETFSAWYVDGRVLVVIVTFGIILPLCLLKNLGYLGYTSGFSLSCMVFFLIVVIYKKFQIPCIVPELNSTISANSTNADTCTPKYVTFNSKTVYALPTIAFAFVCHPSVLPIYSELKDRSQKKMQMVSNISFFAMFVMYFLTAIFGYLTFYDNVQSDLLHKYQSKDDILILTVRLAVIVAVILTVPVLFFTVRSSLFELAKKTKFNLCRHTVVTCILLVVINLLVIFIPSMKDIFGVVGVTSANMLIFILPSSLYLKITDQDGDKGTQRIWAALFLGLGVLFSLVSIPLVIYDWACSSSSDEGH
UniProt O43808: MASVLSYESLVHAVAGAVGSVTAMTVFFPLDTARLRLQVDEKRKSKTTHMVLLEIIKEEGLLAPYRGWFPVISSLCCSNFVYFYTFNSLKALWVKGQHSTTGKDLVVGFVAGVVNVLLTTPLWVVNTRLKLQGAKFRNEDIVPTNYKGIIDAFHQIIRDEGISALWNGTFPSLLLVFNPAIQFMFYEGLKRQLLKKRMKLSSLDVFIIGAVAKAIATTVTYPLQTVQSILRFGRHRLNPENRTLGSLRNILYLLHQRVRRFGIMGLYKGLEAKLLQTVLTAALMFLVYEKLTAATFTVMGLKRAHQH
UniProt Q6KCM7: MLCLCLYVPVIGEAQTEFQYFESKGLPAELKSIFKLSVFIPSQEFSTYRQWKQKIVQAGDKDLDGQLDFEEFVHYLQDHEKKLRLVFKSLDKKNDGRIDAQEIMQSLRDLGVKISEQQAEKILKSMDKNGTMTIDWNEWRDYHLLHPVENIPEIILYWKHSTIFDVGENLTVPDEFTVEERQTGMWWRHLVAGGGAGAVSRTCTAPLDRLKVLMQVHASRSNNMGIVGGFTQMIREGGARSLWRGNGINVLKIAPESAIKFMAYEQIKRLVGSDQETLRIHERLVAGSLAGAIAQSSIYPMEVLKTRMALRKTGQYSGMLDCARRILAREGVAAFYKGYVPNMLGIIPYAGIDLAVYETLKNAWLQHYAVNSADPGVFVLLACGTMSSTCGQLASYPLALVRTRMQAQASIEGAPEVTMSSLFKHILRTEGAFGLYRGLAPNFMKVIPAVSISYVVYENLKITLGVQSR
UniProt Q6P1M0: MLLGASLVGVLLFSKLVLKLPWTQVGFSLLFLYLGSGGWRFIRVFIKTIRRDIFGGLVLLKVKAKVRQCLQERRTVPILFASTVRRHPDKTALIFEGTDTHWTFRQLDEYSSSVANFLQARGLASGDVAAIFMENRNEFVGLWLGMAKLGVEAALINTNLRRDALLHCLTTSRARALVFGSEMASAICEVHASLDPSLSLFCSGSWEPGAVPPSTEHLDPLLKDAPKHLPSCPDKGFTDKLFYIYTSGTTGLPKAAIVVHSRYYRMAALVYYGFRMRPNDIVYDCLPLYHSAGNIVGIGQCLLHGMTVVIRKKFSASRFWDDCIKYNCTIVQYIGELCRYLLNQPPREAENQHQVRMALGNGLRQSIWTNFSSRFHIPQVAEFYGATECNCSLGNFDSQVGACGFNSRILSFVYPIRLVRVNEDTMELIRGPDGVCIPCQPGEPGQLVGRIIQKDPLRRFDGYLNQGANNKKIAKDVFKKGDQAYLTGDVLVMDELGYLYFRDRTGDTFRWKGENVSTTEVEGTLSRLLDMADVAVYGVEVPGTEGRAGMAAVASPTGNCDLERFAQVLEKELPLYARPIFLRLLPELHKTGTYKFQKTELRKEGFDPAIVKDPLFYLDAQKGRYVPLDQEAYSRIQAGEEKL
UniProt Q9NYZ2: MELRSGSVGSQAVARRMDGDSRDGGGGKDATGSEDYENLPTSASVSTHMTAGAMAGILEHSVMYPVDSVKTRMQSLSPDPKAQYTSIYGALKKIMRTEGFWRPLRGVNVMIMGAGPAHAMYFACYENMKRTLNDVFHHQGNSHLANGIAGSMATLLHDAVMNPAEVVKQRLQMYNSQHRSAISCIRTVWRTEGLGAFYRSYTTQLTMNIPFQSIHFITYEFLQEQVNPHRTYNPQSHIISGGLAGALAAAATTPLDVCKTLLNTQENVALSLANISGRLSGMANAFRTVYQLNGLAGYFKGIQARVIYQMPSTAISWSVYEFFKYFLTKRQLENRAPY
UniProt Q96DW6: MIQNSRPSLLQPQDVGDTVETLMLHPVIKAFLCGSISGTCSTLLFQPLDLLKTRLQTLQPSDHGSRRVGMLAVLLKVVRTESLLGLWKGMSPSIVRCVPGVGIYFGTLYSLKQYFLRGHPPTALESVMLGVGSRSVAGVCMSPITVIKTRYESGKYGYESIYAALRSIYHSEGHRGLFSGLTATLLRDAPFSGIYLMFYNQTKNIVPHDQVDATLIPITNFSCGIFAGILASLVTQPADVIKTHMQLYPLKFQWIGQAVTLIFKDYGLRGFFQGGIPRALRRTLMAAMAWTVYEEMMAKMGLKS

[1] = compound: CCCS(=O)(=O)Nc1ccc(F)c(C(=O)c2c[nH]c3ncc(Cl)cc23)c1F
In short: as §1

barasertib = compound: CCN(CCCOc1ccc2c(Nc3cc(CC(=O)Nc4cccc(F)c4)[nH]n3)ncnc2c1)CCOP(=O)(O)O [barasertib]
In short: as §1

[2] = compound: CC[C@@H]1C(=O)N(C)c2cnc(Nc3ccc(C(=O)NC4CCN(C)CC4)cc3OC)nc2N1C1CCCC1
In short: as §1

volasertib = compound: CC[C@@H]1C(=O)N(C)c2cnc(Nc3ccc(C(=O)N[C@H]4CC[C@H](N5CCN(CC6CC6)CC5)CC4)cc3OC)nc2N1C(C)C [volasertib]
In short: as §1

[3] = compound: CCn1c(C(=O)N(C2CC2)C2CC2)cc2c3c(ncn3C)c(Nc3cc(C)n(C)n3)nc21
In short: as §1

[4] = compound: CCn1cc(-c2ccnc3[nH]c(-c4cccc(CN(C)C)c4)cc23)c(-c2ccc(NC(=O)N(C)C)cc2)n1
In short: as §1

[5] = compound: CN1CCC(CNc2ccc3ncc(-c4cccc(OC(F)(F)F)c4)n3n2)CC1
In short: as §1

saracatinib = compound: CN1CCN(CCOc2cc(OC3CCOCC3)c3c(Nc4c(Cl)ccc5c4OCO5)ncnc3c2)CC1 [saracatinib]
In short: as §1

sotrastaurin = compound: CN1CCN(c2nc(C3=C(c4c[nH]c5ccccc45)C(=O)NC3=O)c3ccccc3n2)CC1 [sotrastaurin]
In short: as §1

alvocidib = compound: CN1CC[C@H](c2c(O)cc(O)c3c(=O)cc(-c4ccccc4Cl)oc23)[C@H](O)C1 [alvocidib]
In short: as §1

Tubastatin A = compound: CN1CCc2c(c3ccccc3n2Cc2ccc(C(=O)NO)cc2)C1 [Tubastatin A]
In short: as §1

[6] = compound: CNC(=O)C1=CC=CC=C1NC2=NC(=NC=C2Cl)NC3=C(C=C(C=C3)N4CCOCC4)OC
In short: as §1

defactinib = compound: CNC(=O)c1ccc(Nc2ncc(C(F)(F)F)c(NCc3nccnc3N(C)S(C)(=O)=O)n2)cc1 [defactinib]
In short: as §1

[7] = compound: CNc1nc(-c2ccc3c(N)n[nH]c3c2)cc(N2C[C@@H](C(=O)NC3CCCCC3)CC[C@H]2C)n1
In short: as §1

encorafenib = compound: COC(=O)N[C@@H](C)CNc1nccc(-c2cn(C(C)C)nc2-c2cc(Cl)cc(NS(C)(=O)=O)c2F)n1 [encorafenib]
In short: as §1

[8] = compound: COC(=O)[C@H](CCSC)NC(=O)C1=C(C=C(C=C1)NC[C@H](CS)N)C2=CC=CC=C2
In short: as §1

alisertib = compound: COc1cc(Nc2ncc3c(n2)-c2ccc(Cl)cc2C(c2c(F)cccc2OC)=NC3)ccc1C(=O)O [alisertib]
In short: as §1

[9] = compound: COc1cc2nc(-c3cc(F)ccc3O)nc(N[C@@H]3CNC[C@H]3C(C)(C)O)c2cc1OC
In short: as §1

gefitinib = compound: COc1cc2ncnc(Nc3ccc(F)c(Cl)c3)c2cc1OCCCN1CCOCC1 [gefitinib]
In short: as §1

Measured: log2 fold change

SLC25A21 (UniProt Q9BQT8)
inactive: vemurafenib -0.041 | [1] -0.013 | barasertib -0.001 | [2] -0.024 | volasertib 0.027 | [3] -0.034 | [4] -0.104 | [5] 0.038 | saracatinib -0.017 | sotrastaurin 0.015 | alvocidib -0.068 | Tubastatin A 0.037 | [6] 0.025 | defactinib 0.019 | [7] 0.023 | encorafenib 0.048 | [8] -0.021 | alisertib 0.041 | [9] 0.002 | gefitinib 0.039

SLIRP (UniProt Q9GZT3)
inactive: vemurafenib -0.012 | [1] 0 | barasertib -0.044 | [2] 0.039 | volasertib 0.004 | [3] 0.015 | [4] -0.24 | [5] 0.034 | saracatinib -0.011 | sotrastaurin -0.026 | alvocidib -0.028 | Tubastatin A 0.031 | [6] 0.022 | defactinib 0.023 | [7] 0.052 | encorafenib -0.001 | [8] -0.127 | alisertib 0.012 | [9] -0.025 | gefitinib -0.053

SLC3A2 isoform 3 (UniProt P08195)
inactive: vemurafenib 0.012 | [1] -0.017 | barasertib -0.015 | [2] 0.042 | volasertib 0.037 | [3] -0.03 | [4] -0.016 | [5] 0.022 | saracatinib 0.013 | sotrastaurin 0.011 | alvocidib 0.001 | Tubastatin A 0.067 | [6] 0.008 | defactinib -0.008 | [7] 0.039 | encorafenib -0.011 | [8] -0.03 | alisertib -0.028 | [9] 0.019 | gefitinib -0.028

SLC7A6OS (UniProt Q96CW6)
inactive: vemurafenib -0.001 | [1] 0.014 | barasertib -0.004 | [2] 0.049 | volasertib -0.003 | [3] -0.04 | [4] -0.1 | [5] 0.05 | saracatinib 0.028 | sotrastaurin -0.028 | alvocidib -0.053 | Tubastatin A 0.063 | [6] 0.042 | defactinib 0.046 | [7] -0.066 | encorafenib -0.028 | [8] -0.036 | alisertib 0.006 | [9] 0.031 | gefitinib -0.151

SLC38A5 (UniProt Q8WUX1)
inactive: vemurafenib 0.02 | [1] 0.006 | barasertib 0.05 | [2] -0.024 | volasertib 0.01 | [3] -0.038 | [4] -0.172 | [5] 0.086 | saracatinib 0.031 | sotrastaurin 0.074 | alvocidib -0.066 | Tubastatin A -0.008 | [6] 0.013 | defactinib -0.037 | [7] -0.039 | encorafenib 0.027 | [8] -0.042 | alisertib 0.009 | [9] 0.001 | gefitinib -0.027

SLC35A2 isoform 4 (UniProt P78381)
inactive: vemurafenib 0.106 | [1] -0.102 | barasertib 0.012 | [2] 0.135 | volasertib -0.044 | [3] 0.013 | [4] -0.343 | [5] 0.056 | saracatinib -0.059 | sotrastaurin -0.02 | alvocidib -0.009 | Tubastatin A -0.061 | [6] -0.029 | defactinib 0.001 | [7] -0.029 | encorafenib 0.006 | [8] 0.002 | alisertib -0.008 | [9] 0.141 | gefitinib 0.102

Copied from above (2 entries):
SLIRP (UniProt Q9GZT3)
inactive: vemurafenib -0.012 | [1] 0 | barasertib -0.044 | [2] 0.039 | volasertib 0.004 | [3] 0.015 | [4] -0.24 | [5] 0.034 | saracatinib -0.011 | sotrastaurin -0.026 | alvocidib -0.028 | Tubastatin A 0.031 | [6] 0.022 | defactinib 0.023 | [7] 0.052 | encorafenib -0.001 | [8] -0.127 | alisertib 0.012 | [9] -0.025 | gefitinib -0.053

SLC3A2 isoform 3 (UniProt P08195)
inactive: vemurafenib 0.012 | [1] -0.017 | barasertib -0.015 | [2] 0.042 | volasertib 0.037 | [3] -0.03 | [4] -0.016 | [5] 0.022 | saracatinib 0.013 | sotrastaurin 0.011 | alvocidib 0.001 | Tubastatin A 0.067 | [6] 0.008 | defactinib -0.008 | [7] 0.039 | encorafenib -0.011 | [8] -0.03 | alisertib -0.028 | [9] 0.019 | gefitinib -0.028

Additional entries follow.

SLC29A2 (UniProt Q14542)
active: [4] -0.729
inactive: vemurafenib 0.003 | [1] 0.012 | barasertib 0.029 | [2] 0.049 | volasertib -0.041 | [3] -0.079 | [5] 0.206 | saracatinib -0.004 | sotrastaurin 0.013 | alvocidib -0.134 | Tubastatin A -0.018 | [6] 0.187 | defactinib -0.011 | [7] -0.042 | encorafenib 0.025 | [8] 0.007 | alisertib -0.031 | [9] 0.008 | gefitinib 0.046

SLC6A6 (UniProt P31641)
inactive: vemurafenib 0.15 | [1] -0.004 | barasertib 0.006 | [2] 0.018 | volasertib 0.014 | [3] 0.002 | [4] 0.115 | [5] -0.047 | saracatinib -0.059 | sotrastaurin 0.016 | alvocidib 0.037 | Tubastatin A 0.01 | [6] -0.02 | defactinib 0.012 | [7] -0.045 | encorafenib -0.008 | [8] -0.068 | alisertib -0.018 | [9] 0.016 | gefitinib 0.006

SLC25A22 (UniProt Q9H936)
inactive: vemurafenib -0.018 | [1] 0.025 | barasertib -0.02 | [2] 0.012 | volasertib 0.044 | [3] 0.006 | [4] -0.01 | [5] 0.007 | saracatinib 0.012 | sotrastaurin -0.016 | alvocidib -0.026 | Tubastatin A -0.01 | [6] 0.001 | defactinib 0.041 | [7] 0.018 | encorafenib 0.021 | [8] 0.008 | alisertib 0.037 | [9] 0.02 | gefitinib 0.008

SLC43A3 isoform 2 (UniProt Q8NBI5)
inactive: vemurafenib -0.054 | [1] -0.02 | barasertib -0.018 | [2] -0.006 | volasertib 0.028 | [3] -0.003 | [4] -0.034 | [5] 0.043 | saracatinib -0.03 | sotrastaurin -0.057 | alvocidib -0.015 | Tubastatin A -0.018 | [6] -0.012 | defactinib 0.024 | [7] 0.014 | encorafenib 0.045 | [8] -0.045 | alisertib -0.017 | [9] -0.015 | gefitinib 0.044

SLC38A1 (UniProt Q9H2H9)
active: [4] -0.269
inactive: vemurafenib 0.03 | [1] -0.007 | barasertib 0 | [2] 0.035 | volasertib 0.066 | [3] 0.008 | [5] 0.102 | saracatinib -0.002 | sotrastaurin 0.024 | alvocidib -0.111 | Tubastatin A 0.022 | [6] -0.026 | defactinib -0.016 | [7] -0.054 | encorafenib 0.019 | [8] -0.045 | alisertib -0.021 | [9] 0.011 | gefitinib 0.073

SLC25A17 (UniProt O43808)
inactive: vemurafenib -0.035 | [1] -0.031 | barasertib 0.02 | [2] 0.066 | volasertib 0.04 | [3] -0.043 | [4] -0.119 | [5] 0.103 | saracatinib 0.041 | sotrastaurin 0.015 | alvocidib -0.216 | Tubastatin A 0.094 | [6] 0.007 | defactinib -0.036 | [7] 0.006 | encorafenib 0.004 | [8] -0.009 | alisertib 0.019 | [9] -0.011 | gefitinib 0.026

SLC25A25 isoform 3 (UniProt Q6KCM7)
inactive: vemurafenib -0.011 | [1] -0.012 | barasertib 0.004 | [2] 0.012 | volasertib 0.03 | [3] 0.007 | [4] -0.012 | [5] -0.053 | saracatinib 0.016 | sotrastaurin -0.016 | alvocidib 0.014 | Tubastatin A 0.015 | [6] 0.007 | defactinib 0.029 | [7] 0.003 | encorafenib 0.035 | [8] 0.012 | alisertib -0.011 | [9] 0.025 | gefitinib 0.037

SLC27A4 (UniProt Q6P1M0)
inactive: vemurafenib -0.042 | [1] 0.127 | barasertib -0.015 | [2] -0.028 | volasertib -0.106 | [3] 0 | [4] -0.066 | [5] -0.008 | saracatinib -0.023 | sotrastaurin 0.083 | alvocidib -0.019 | Tubastatin A -0.021 | [6] -0.009 | defactinib -0.157 | [7] -0.062 | encorafenib 0.135 | [8] 0.006 | alisertib 0.039 | [9] 0.062 | gefitinib -0.067

SLC25A37 (UniProt Q9NYZ2)
inactive: vemurafenib 0 | [1] 0.021 | barasertib -0.038 | [2] 0.016 | volasertib 0.035 | [3] -0.081 | [4] -0.038 | [5] 0.082 | saracatinib 0.008 | sotrastaurin 0.013 | alvocidib 0.005 | Tubastatin A 0.111 | [6] 0.103 | defactinib -0.027 | [7] 0.001 | encorafenib 0.019 | [8] 0.009 | alisertib 0.023 | [9] 0.007 | gefitinib 0.04

SLC25A38 (UniProt Q96DW6)
inactive: vemurafenib 0.037 | [1] 0.013 | barasertib -0.005 | [2] 0.209 | volasertib 0.012 | [3] 0.015 | [4] -0.055 | [5] 0.067 | saracatinib -0.127 | sotrastaurin 0.07 | alvocidib -0.062 | Tubastatin A 0.014 | [6] -0.049 | defactinib 0.074 | [7] 0.06 | encorafenib -0.038 | [8] 0.321 | alisertib 0.044 | [9] 0.097 | gefitinib 0.094

From the supplement of paper PMC10849652
